Measurements: PubChem BioAssay AID1625 (Sanford-Burnham Center for Chemical Genomics, 2009)
Some of the results follow. Some tests of the compounds listed are not included; inactive here does not mean inactive elsewhere.

Assay: insulin promoter activators in MIN6 cells, imaging, high-content screening, mouse beta cells (AID 1625);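 note: total cells summed across four imaged fields per well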
Conditions: MIN6 insulin promoter-GFP reporter, measured here: cytotoxicity, nuclei count, at 5 µM
`CCN(CC)CC(C)C(C)OC(=O)C(O)(c1ccccc1)c1ccccc1` (stereo not given) gave a cell count of 1080 cells. Compound `CC(C)N1C(=O)CC2(CCN(CCOC(=O)C(O)(c3ccccc3)c3ccccc3)CC2)C1=O` has a cell count of 1590 cells. `CCN1CCCC(OC(=O)C2(O)c3ccccc3C=Cc3ccccc32)C1` (stereo not given) showed a cell count of 1350 cells. Work on `C=CCN1CCN(CCOC(=O)C(O)(c2ccccc2)c2ccccc2)CC1` yielded a cell count of 1430 cells. With `CN(C)C1CCCC1OC(=O)C(O)(c1ccccc1)c1ccccc1` (stereo not given) the cell count was 1120 cells. `Cc1ccccc1C(=O)NCC1(N2CCCCC2)CCCCC1` gave a cell count of 1470 cells. `COc1cccc(C(=O)NCC2(N3CCCCC3)CCCCC2)c1` gave a cell count of 1350 cells. For `CN(C)c1cccc(C(=O)NCC2(N(C)C)CCCCC2)c1`, the cell count was 1120 cells. Compound `COc1ccc(Br)c(C(=O)NCC2(N3CCCCC3)CCCCC2)c1` has a cell count of 1300 cells. In the case of `O=C(OC1CN2CCC1CC2)C(CO)(c1ccccc1)c1ccccc1` (stereo not given), the cell count is reported as 1130 cells.
